PubChem BioAssay AID1487 (National Center for Advancing Translational Sciences (NCATS), 2009)
Screen size: about 200,000 compounds; about 25 (0.01%) were called active. Inconclusive results, whose numbers are uncertain, are shown with a selection of clear calls. The call rests on the fitted dose curve; in most records, active means well fitted inhibition curve with a large enough effect in the signal ratio, with a control signal flat (not every such curve was filed as active); inconclusive means small, poorly fitted or top-dose-only effect, or effect the other way, or a change in a side signal; inactive means flat fitted curve, though single readings scatter; the % refers to the signal ratio. Potencies of inconclusive entries are doubtful fits and often do not repeat.

Assay: qHTS Assay for Modulators of Lamin A Splicing
Settings: HeLa LMNA splicing GFP/RFP minigene ratio, 48 h; ratio change, negative = inhibition: at 46.1 µM (top of the series) unless noted
Outline: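 Read-out is the ratio of GFP to DsRed2 object intensity, acquired by 488 nm laser-scanning cytometry on HeLa lamin A-EGFP minigene reporter cells. Compound incubation 48 hrs at 37 °C in Opti-MEM with 2% FBS; DMSO 0.5% final.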
On the % scale 0 is the no-effect control and ±100 the full control effect; potency means the concentration at half of the fitted maximal effect.

Row | SMILES | ratio change, negative = inhibition | Potency
1 | Cc1oc(-c2ccccc2Cl)nc1CSc1nc2c(c(=O)[nH]1)CCC2 | inconclusive: -15.7% | 
2 | COc1ccc(CCNC(=O)CC2SC(=NCCc3ccccc3)NC2=O)cc1OC (stereo not drawn) | inactive | 
3 | O=S1(=O)N=C2CCCCCN2C(c2ccc(F)cc2)N1 (stereo not drawn) | inactive | 
4 | COc1ccc(/C=C(\C#N)C(=O)OC2CCOC2=O)cc1 (stereo not drawn) | inconclusive: 20.1% [at 46 µM] | 
5 | COc1cc(Cl)c(S(=O)(=O)N2CCN(Cc3ccc4c(c3)OCO4)CC2)cc1Cl |  | inconclusive: 35.5 µM [fluorescent, single point]
6 | O=C(CO/N=C/c1ccc(OC(F)F)cc1)NC1CCCCCC1 | inconclusive: -12.7% [at 46 µM] | 
7 | COc1cc2c3nnc(-c4ccc(F)cc4)c-3cn(Cc3ccc(F)cc3)c2cc1OC |  | inconclusive: 35.5 µM [cytotoxic, single point]
8 | Cc1cccc(NC2=NC(C)(C)N=C(N)N2)c1 | inconclusive: -37.5% [at 46 µM] | 
9 | O=C(Nc1nnc(SCC(=O)N2CCCCC2)s1)c1cccs1 | inactive | 
10 | O=C(NCCc1ccc(Cl)cc1)c1ccc(CS(=O)(=O)c2ccc(Cl)cc2)o1 |  | inconclusive: 12.6 µM [inhibitor, single point]
11 | COc1ccc(Nc2nnc(-c3ccc(C)cc3)c3ccccc23)cc1C(=O)N1CCCCC1 |  | inconclusive: 35.5 µM [falling, single point]
12 | CCN1CCc2c(sc(-n3cccc3)c2C(C)NC(=O)Nc2ccc(Br)cc2)C1 (stereo not drawn) | inconclusive: 26% [at 46 µM] | 
13 | Cc1ccc(C)c2nc3sc(C(=O)O)cc3cc12 | inconclusive: -41.4% [at 46 µM] | 
14 | COc1cccc(N2CCN(C(=O)C3CCN(S(=O)(=O)c4c(C)noc4/C=C/c4ccccc4F)CC3)CC2)c1 | inconclusive: -8.45% [at 46 µM] | 
15 | CCCC1CC(=O)OC1(C)C(=O)CSc1n[nH]c(-c2ccccc2)n1 (stereo not drawn) | inactive | 
16 | Cc1ccc(-c2ccc(=O)n(CCC(=O)NCCc3ccccc3)n2)cc1 | inconclusive: 14% [at 46 µM] | 
17 | Cc1ccc(C)c(Sc2ccc(NC(=O)CCl)cc2)c1 | inconclusive: -37.1% | 
18 | Cc1nc2c([nH]c3ccc(Br)cc32)s1 | inconclusive: 5.93% | 
19 | Cc1cc(OCC(=O)Nn2cnnc2)c(C)cc1Br | inactive | 
20 | COC1=CC(=O)CC(C)C12Oc1c(Cl)c(OC)cc(OC)c1C2=O (stereo not drawn) | inconclusive: 31.5% [at 46 µM] | 
21 | Clc1ccc(-n2ncc3c(NCc4cccs4)ncnc32)cc1 |  | inconclusive: 11.2 µM [falling, partial curve]
22 | Clc1cccc(CN2CCC(Cc3ccccc3)CC2)c1 | inconclusive: 3.6% | 
23 | CCNC(=S)NNc1nc(N2CCOCC2)nc(N2CCOCC2)n1 | inactive: 22.9% [at 9.22 µM] | 
24 | O=C1C(Cl)=C(Nc2ccccc2O)C(=O)N1CCc1ccccc1 | inactive | 
25 | Cc1ccccc1OCC(=O)Nc1ccc2nc(SCC(=O)N3CCCC3)sc2c1 | inconclusive: -32.5% [at 46 µM] | 
26 | Cc1ccc(-c2cc(N)n(-c3ccccc3)n2)cc1 | inactive | 
27 | Cn1cccc1C(=O)OCC(=O)Nc1ccc2c(c1)CCC2 | inconclusive: 7.94% | 

Row | SMILES | ratio change, negative = inhibition | Potency
28 | CCOC(=O)C1=c2/c(=C/c3ccncc3)c(N)c(C(=O)OC)n2C(=O)C(c2ccncc2)S1 (stereo not drawn) | inconclusive: -18.8% [at 46 µM] | 
29 | O=C(c1ccc(Cl)c(Cl)c1)N1CCC(O)(CN2CCOCC2)CC1 | inactive | 
30 | Cn1c(/C=N/NC(=O)c2ccccc2)nc2ccccc21 | inconclusive: -9.77% | 
31 | S=C(NCc1ccccn1)Nc1ccc(Cl)cc1 | inactive | 
32 | Cc1cc(C)n2c(Br)c(CN3CCCC(C)C3)nc2n1 (stereo not drawn) |  | inconclusive: 0.501 µM [inhibitor, partial curve]
33 | Cc1c(C(=O)N2CCN(C)CC2)oc2c1C(=O)CC(C)(C)C2 | inactive | 
34 | COc1cc(CNC(=O)c2cnc3c(-c4cccc(C)c4)c(C)nn3c2C)cc(OC)c1OC | inconclusive: 11.1% [at 46 µM] | 
35 | Cc1ccccc1-c1nc(-c2ccccn2)no1 | inactive | 
36 | CC(=O)Oc1cc(C(C)C)c(OCCN(C)C)cc1C | inconclusive: -3.69% | 
37 | Cn1sc(NC(=O)c2ccccc2Cl)nc1=O | inactive | 
38 | O=S(=O)(c1ccc(Cl)cc1)N1CCN(C(=S)Nc2ccccc2F)CC1 | inconclusive: -33.5% [at 46 µM] | 
39 | CCOC(=O)c1cccc(NC(=O)CN(C)S(=O)(=O)c2cnc[nH]2)c1 | inconclusive: 9.5% | 
40 | N#C/C(=C/c1ccc(N2CCCCCC2)o1)c1ccc(Cl)cc1 | inconclusive: 43.6% | 
41 | C/C(=N\NC(=O)Cc1cccc2ccccc12)c1ccncc1 | inconclusive: -22.7% | 
42 | O=[N+]([O-])c1ccc(C=Nc2ccc(Cl)c([N+](=O)[O-])c2)s1 | inconclusive: -50.1% [at 9.22 µM] | 
43 | CCc1ccc(C2=NN(CCC(=O)NCCc3ccccc3)C(=O)CC2)cc1 | inactive | 
44 | Cc1cc(C)cc(OCC(=O)N2CCC(c3nc4ccccc4o3)CC2)c1 | inconclusive: 17.2% [at 46 µM] | 
45 | CCOc1ccc(NC(=O)c2c(NCc3cc(OC)c(OC)cc3OC)sc3c2CCCC3)cc1 | inconclusive: -25.9% [at 46 µM] | 
46 | O=C(O)CSc1nc(-c2ccccc2)nc2c1oc1ccccc12 | inconclusive: 5.23% | 
47 | Clc1ccccc1-c1nn2c(COc3ccccc3)nnc2s1 | inconclusive: -32.1% | 
48 | COc1ccc(CCNC(=O)Cn2c(=O)nc(-c3ccccc3)c3cc(Cl)ccc32)cc1OC | inactive | 
49 | COc1ccc(N2CCN(C(=O)c3cccc(Br)c3)CC2)c([N+](=O)[O-])c1 | inconclusive: -14% [at 46 µM] | 
50 | CC(C)CCNC(=O)C(c1ccc(O)cc1)N(C(=O)C1COc2ccccc2O1)c1cccc(O)c1 (stereo not drawn) | inconclusive: -43.5% [at 46 µM] | 
51 | CCCC1=Nc2cc(C(=O)NC3CCCCC3)ccc2Sc2ccc(C)cc21 |  | inconclusive: 0.158 µM [inhibitor, full curve, poor fit]
52 | CCOC(=O)c1c(NC(=O)COc2ccccc2)sc(C(C)=O)c1C | inconclusive: -3.65% [at 46 µM] | 
53 | CCOC(=O)N1CCC(NCCNC(=O)c2ccccc2)CC1 | inconclusive: 5.95% | 

Among those listed so far, two contain a cyano group.
Row | SMILES | ratio change, negative = inhibition | Potency
4 | COc1ccc(/C=C(\C#N)C(=O)OC2CCOC2=O)cc1 (stereo not drawn) | inconclusive: 20.1% [at 46 µM] | 
40 | N#C/C(=C/c1ccc(N2CCCCCC2)o1)c1ccc(Cl)cc1 | inconclusive: 43.6% | 
